# Reference: the supplement of paper PMC8728848
# This is one part of the list.
# How the values were obtained:
# Assay in all cases: glycan array binding signal (z-score within array); higher = stronger binding
# Details in all cases: glycan notation: IUPAC condensed, linker removed
# [1] = target: Fuc(a1-3)[Gal3S(b1-4)]GlcNAc6S
# Procedure, shortened: (§1)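 The binding signal is a Z-score computed within each array. Data were drawn from 3228 arrays in the Consortium for Functional Glycomics database, restricted to those with a known protein sequence. Scores were averaged over arrays of the same protein sequence at different concentrations or buffers, and over linkers, and negative values can be taken as non-binding.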
# [2] = target: Fuc(a1-3)[GalNAc(b1-4)]GlcNAc
# Procedure, shortened: as §1
# [3] = target: Fuc(a1-3)[GalNAc(b1-4)]GlcNAc6S
# Procedure, shortened: as §1
# Fuc(a1-4)GlcNAc = target: Fuc(a1-4)GlcNAc
# Procedure, shortened: as §1
# Fuc(b1-3)GlcNAc = target: Fuc(b1-3)GlcNAc
# Procedure, shortened: as §1
# Gal(a1-2)Gal = target: Gal(a1-2)Gal
# Procedure, shortened: as §1
# Gal(a1-3)Gal = target: Gal(a1-3)Gal
# Procedure, shortened: as §1
# Gal(a1-3)Gal(b1-3)GlcNAc = target: Gal(a1-3)Gal(b1-3)GlcNAc
# Procedure, shortened: as §1
# [4] = target: Gal(a1-3)Gal(b1-3)GlcNAc(b1-2)Man
# Procedure, shortened: as §1
# [5] = target: Gal(a1-3)Gal(b1-3)GlcNAc(b1-2)Man(a1-3)[Gal(a1-3)Gal(b1-3)GlcNAc(b1-2)Man(a1-6)]Man(b1-4)GlcNAc(b1-4)GlcNAc
# Procedure, shortened: as §1
# [6] = target: Gal(a1-3)Gal(b1-3)GlcNAc(b1-3)GalNAc
# Procedure, shortened: as §1
# [7] = target: Gal(a1-3)Gal(b1-3)GlcNAc(b1-6)GalNAc
# Procedure, shortened: as §1
# [8] = target: Gal(a1-3)Gal(b1-3)[Fuc(a1-4)]GlcNAc(b1-2)Man(a1-3)[Gal(a1-3)Gal(b1-3)[Fuc(a1-4)]GlcNAc(b1-2)Man(a1-6)]Man(b1-4)GlcNAc(b1-4)GlcNAc
# Procedure, shortened: as §1
# Gal(a1-3)Gal(b1-4)Glc = target: Gal(a1-3)Gal(b1-4)Glc
# Procedure, shortened: as §1
# Gal(a1-3)Gal(b1-4)GlcNAc = target: Gal(a1-3)Gal(b1-4)GlcNAc
# Procedure, shortened: as §1
# [9] = target: Gal(a1-3)Gal(b1-4)GlcNAc(b1-2)Man
# Procedure, shortened: as §1
# [10] = target: Gal(a1-3)Gal(b1-4)GlcNAc(b1-2)Man(a1-3)[Gal(a1-3)Gal(b1-4)GlcNAc(b1-2)Man(a1-6)]Man(b1-4)GlcNAc(b1-4)GlcNAc
# Procedure, shortened: as §1
# [11] = target: Gal(a1-3)Gal(b1-4)GlcNAc(b1-3)GalNAc
# Procedure, shortened: as §1
# [12] = target: Gal(a1-3)Gal(b1-4)GlcNAc(b1-6)GalNAc
# Procedure, shortened: as §1
# [13] = target: Gal(a1-3)Gal(b1-4)[Fuc(a1-3)]GlcNAc
# Procedure, shortened: as §1
# [14] = target: Gal(a1-3)Gal(b1-4)[Fuc(a1-3)]GlcNAc(b1-2)Man(a1-3)[Gal(a1-3)Gal(b1-4)[Fuc(a1-3)]GlcNAc(b1-2)Man(a1-6)]Man(b1-4)GlcNAc(b1-4)GlcNAc
# Procedure, shortened: as §1
# Gal(a1-3)GalNAc = target: Gal(a1-3)GalNAc
# Procedure, shortened: as §1
# [15] = target: Gal(a1-3)[Gal(a1-4)]Gal(b1-4)GlcNAc
# Procedure, shortened: as §1
# [16] = target: Gal(a1-4)Gal(b1-3)GlcNAc(b1-2)Man(a1-3)[Gal(a1-4)Gal(b1-3)GlcNAc(b1-2)Man(a1-6)]Man(b1-4)GlcNAc(b1-4)GlcNAc
# Procedure, shortened: as §1
# Gal(a1-4)Gal(b1-4)Glc = target: Gal(a1-4)Gal(b1-4)Glc
# Procedure, shortened: as §1
# Gal(a1-4)Gal(b1-4)GlcNAc = target: Gal(a1-4)Gal(b1-4)GlcNAc
# Procedure, shortened: as §1
# [17] = target: Gal(a1-4)Gal(b1-4)GlcNAc(b1-2)Man(a1-3)[Gal(a1-4)Gal(b1-4)GlcNAc(b1-2)Man(a1-6)]Man(b1-4)GlcNAc(b1-4)GlcNAc
# Procedure, shortened: as §1
# [18] = target: Gal(a1-4)Gal(b1-4)GlcNAc(b1-3)Gal(b1-4)Glc
# Procedure, shortened: as §1
# Gal(a1-4)GlcNAc = target: Gal(a1-4)GlcNAc
# Procedure, shortened: as §1
# Gal(a1-6)Glc = target: Gal(a1-6)Glc
# Procedure, shortened: as §1
# Gal(b1-2)Gal = target: Gal(b1-2)Gal
# Procedure, shortened: as §1
# Gal(b1-3)Gal = target: Gal(b1-3)Gal
# Procedure, shortened: as §1
# Gal(b1-3)Gal(b1-4)GlcNAc = target: Gal(b1-3)Gal(b1-4)GlcNAc
# Procedure, shortened: as §1
# Gal(b1-3)GalNAc = target: Gal(b1-3)GalNAc
# Procedure, shortened: as §1
# [19] = target: Gal(b1-3)GalNAc(a1-3)[Fuc(a1-2)]Gal(b1-4)Glc
# Procedure, shortened: as §1
# [20] = target: Gal(b1-3)GalNAc(a1-3)[Fuc(a1-2)]Gal(b1-4)GlcNAc
# Procedure, shortened: as §1
# Gal(b1-3)GalNAc(b1-3)Gal = target: Gal(b1-3)GalNAc(b1-3)Gal
# Procedure, shortened: as §1
# [21] = target: Gal(b1-3)GalNAc(b1-3)Gal(a1-4)Gal(b1-4)Glc
# Procedure, shortened: as §1
# [22] = target: Gal(b1-3)GalNAc(b1-4)Gal(b1-4)Glc
# Procedure, shortened: as §1
# [23] = target: Gal(b1-3)GalNAc(b1-4)[Neu5Ac(a2-3)]Gal(b1-4)Glc
# Procedure, shortened: as §1
# Gal(b1-3)GlcNAc = target: Gal(b1-3)GlcNAc
# Procedure, shortened: as §1
# [24] = target: Gal(b1-3)GlcNAc(a1-3)Gal(b1-4)GlcNAc
# Procedure, shortened: as §1
# [25] = target: Gal(b1-3)GlcNAc(a1-6)Gal(b1-4)GlcNAc
# Procedure, shortened: as §1
# Gal(b1-3)GlcNAc(b1-2)Man = target: Gal(b1-3)GlcNAc(b1-2)Man
# Procedure, shortened: as §1
# [26] = target: Gal(b1-3)GlcNAc(b1-2)Man(a1-3)[Gal(b1-3)GlcNAc(b1-2)Man(a1-6)]Man(b1-4)GlcNAc(b1-4)GlcNAc
# Procedure, shortened: as §1
binder,measurement,setting,value
PX14343G-pdi-535-24-535 (Parabacteroides distasonis) (protein) LDTVPKDQLAPSTTWQTEADAKGFIVGCYKDLLDGNTLLYLDCGSDIGYNNFPWEGFRPWGDGSLSSSNPGQILYDYKSIRKANTFLENVDKVTFSSDAVKANYVAQAKAIRAYKYFLMNWWYGGVPIISSYSSADEAKVERNTEQEVRDYIAKDLDEALAGIAEAPEARGYIAKGAVLAIKMREALYYGDWQKAKDAAKAIIDLKQYELDPDYTNLFKVSGVDSKEIILADQNIETLDGLGTIGQMYNNVDQGWSSIVPTQNLVDMYEMSDGLTKEESKTYDAKHPFANRDPRMAMTILYPGRDWRGDVLNTLDEKLQDGTVNKNFPTYTDNASKSALTWAKYLDPMDQYGDVWSSGACPIVFRYAEVLLTYAEAANELSGPSDEIYGYLNQIRQRVGMGEVDKAKYGTKDKLRELIRRERTVELAGEGLRRADIVRWQEDGKMLAEKVMNGDLLRVTGTINYGESEPTKRAEITGTAVIETRQFSSRNRYLPIPQTSMDKNPNLKQNPGY,glycan array binding signal (z-score),[1],0.175
same,glycan array binding signal (z-score),[2],0.469
same,glycan array binding signal (z-score),[3],-0.41
same,glycan array binding signal (z-score),Fuc(a1-4)GlcNAc,-0.441
same,glycan array binding signal (z-score),Fuc(b1-3)GlcNAc,0.803
same,glycan array binding signal (z-score),Gal(a1-2)Gal,-1.08
same,glycan array binding signal (z-score),Gal(a1-3)Gal,-0.161
same,glycan array binding signal (z-score),Gal(a1-3)Gal(b1-3)GlcNAc,1.53
same,glycan array binding signal (z-score),[4],-0.089
same,glycan array binding signal (z-score),[5],-0.094
same,glycan array binding signal (z-score),[6],-0.685
same,glycan array binding signal (z-score),[7],-0.474
same,glycan array binding signal (z-score),[8],0.247
same,glycan array binding signal (z-score),Gal(a1-3)Gal(b1-4)Glc,-0.347
same,glycan array binding signal (z-score),Gal(a1-3)Gal(b1-4)GlcNAc,-0.147
same,glycan array binding signal (z-score),[9],-0.912
same,glycan array binding signal (z-score),[10],0.366
same,glycan array binding signal (z-score),[11],0.519
same,glycan array binding signal (z-score),[12],-0.158
same,glycan array binding signal (z-score),[13],-0.222
same,glycan array binding signal (z-score),[14],0.64
same,glycan array binding signal (z-score),Gal(a1-3)GalNAc,0.506
same,glycan array binding signal (z-score),[15],2.67
same,glycan array binding signal (z-score),[16],-0.566
same,glycan array binding signal (z-score),Gal(a1-4)Gal(b1-4)Glc,1.42
same,glycan array binding signal (z-score),Gal(a1-4)Gal(b1-4)GlcNAc,0.613
same,glycan array binding signal (z-score),[17],0.47
same,glycan array binding signal (z-score),[18],-0.746
same,glycan array binding signal (z-score),Gal(a1-4)GlcNAc,-0.638
same,glycan array binding signal (z-score),Gal(a1-6)Glc,-0.876
same,glycan array binding signal (z-score),Gal(b1-2)Gal,0.59
same,glycan array binding signal (z-score),Gal(b1-3)Gal,0.479
same,glycan array binding signal (z-score),Gal(b1-3)Gal(b1-4)GlcNAc,0.673
same,glycan array binding signal (z-score),Gal(b1-3)GalNAc,-0.242
same,glycan array binding signal (z-score),[19],-1.38
same,glycan array binding signal (z-score),[20],0.052
same,glycan array binding signal (z-score),Gal(b1-3)GalNAc(b1-3)Gal,-0.186
same,glycan array binding signal (z-score),[21],-0.25
same,glycan array binding signal (z-score),[22],-0.297
same,glycan array binding signal (z-score),[23],-0.527
same,glycan array binding signal (z-score),Gal(b1-3)GlcNAc,-0.673
same,glycan array binding signal (z-score),[24],-0.62
same,glycan array binding signal (z-score),[25],-0.235
same,glycan array binding signal (z-score),Gal(b1-3)GlcNAc(b1-2)Man,0.398
same,glycan array binding signal (z-score),[26],0.51

# For reference, some entries already given.
binder,measurement,setting,value
PX14343G-pdi-535-24-535 (Parabacteroides distasonis) (protein) LDTVPKDQLAPSTTWQTEADAKGFIVGCYKDLLDGNTLLYLDCGSDIGYNNFPWEGFRPWGDGSLSSSNPGQILYDYKSIRKANTFLENVDKVTFSSDAVKANYVAQAKAIRAYKYFLMNWWYGGVPIISSYSSADEAKVERNTEQEVRDYIAKDLDEALAGIAEAPEARGYIAKGAVLAIKMREALYYGDWQKAKDAAKAIIDLKQYELDPDYTNLFKVSGVDSKEIILADQNIETLDGLGTIGQMYNNVDQGWSSIVPTQNLVDMYEMSDGLTKEESKTYDAKHPFANRDPRMAMTILYPGRDWRGDVLNTLDEKLQDGTVNKNFPTYTDNASKSALTWAKYLDPMDQYGDVWSSGACPIVFRYAEVLLTYAEAANELSGPSDEIYGYLNQIRQRVGMGEVDKAKYGTKDKLRELIRRERTVELAGEGLRRADIVRWQEDGKMLAEKVMNGDLLRVTGTINYGESEPTKRAEITGTAVIETRQFSSRNRYLPIPQTSMDKNPNLKQNPGY,glycan array binding signal (z-score),Gal(a1-3)Gal(b1-4)GlcNAc,-0.147
same,glycan array binding signal (z-score),[9],-0.912
same,glycan array binding signal (z-score),[10],0.366
